No constants are given. Whether binding was seen depends on the method and setting. In cells and extracts the contact can be indirect. A yes stands for co-enrichment or nearness to the bait. Other partners may have been found.
T1: Protein S100-A16, overexpressed from lentivirus (human) (UniProt Q96FQ6)
T1 sequence: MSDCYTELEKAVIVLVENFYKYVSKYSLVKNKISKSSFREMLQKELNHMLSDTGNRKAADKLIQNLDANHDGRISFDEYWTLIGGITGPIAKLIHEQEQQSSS

The chains behind the UniProt entries cited, without tags or fusion partners. Where a name states a change or a piece, a line headed by the entry shows the natural chain unless it says otherwise. A line that says so, or that is headed by a name, gives the form on record, which may keep a tag or linker.
Isoform 2 of Kinesin-like protein KIF1B (O60333-2, form named): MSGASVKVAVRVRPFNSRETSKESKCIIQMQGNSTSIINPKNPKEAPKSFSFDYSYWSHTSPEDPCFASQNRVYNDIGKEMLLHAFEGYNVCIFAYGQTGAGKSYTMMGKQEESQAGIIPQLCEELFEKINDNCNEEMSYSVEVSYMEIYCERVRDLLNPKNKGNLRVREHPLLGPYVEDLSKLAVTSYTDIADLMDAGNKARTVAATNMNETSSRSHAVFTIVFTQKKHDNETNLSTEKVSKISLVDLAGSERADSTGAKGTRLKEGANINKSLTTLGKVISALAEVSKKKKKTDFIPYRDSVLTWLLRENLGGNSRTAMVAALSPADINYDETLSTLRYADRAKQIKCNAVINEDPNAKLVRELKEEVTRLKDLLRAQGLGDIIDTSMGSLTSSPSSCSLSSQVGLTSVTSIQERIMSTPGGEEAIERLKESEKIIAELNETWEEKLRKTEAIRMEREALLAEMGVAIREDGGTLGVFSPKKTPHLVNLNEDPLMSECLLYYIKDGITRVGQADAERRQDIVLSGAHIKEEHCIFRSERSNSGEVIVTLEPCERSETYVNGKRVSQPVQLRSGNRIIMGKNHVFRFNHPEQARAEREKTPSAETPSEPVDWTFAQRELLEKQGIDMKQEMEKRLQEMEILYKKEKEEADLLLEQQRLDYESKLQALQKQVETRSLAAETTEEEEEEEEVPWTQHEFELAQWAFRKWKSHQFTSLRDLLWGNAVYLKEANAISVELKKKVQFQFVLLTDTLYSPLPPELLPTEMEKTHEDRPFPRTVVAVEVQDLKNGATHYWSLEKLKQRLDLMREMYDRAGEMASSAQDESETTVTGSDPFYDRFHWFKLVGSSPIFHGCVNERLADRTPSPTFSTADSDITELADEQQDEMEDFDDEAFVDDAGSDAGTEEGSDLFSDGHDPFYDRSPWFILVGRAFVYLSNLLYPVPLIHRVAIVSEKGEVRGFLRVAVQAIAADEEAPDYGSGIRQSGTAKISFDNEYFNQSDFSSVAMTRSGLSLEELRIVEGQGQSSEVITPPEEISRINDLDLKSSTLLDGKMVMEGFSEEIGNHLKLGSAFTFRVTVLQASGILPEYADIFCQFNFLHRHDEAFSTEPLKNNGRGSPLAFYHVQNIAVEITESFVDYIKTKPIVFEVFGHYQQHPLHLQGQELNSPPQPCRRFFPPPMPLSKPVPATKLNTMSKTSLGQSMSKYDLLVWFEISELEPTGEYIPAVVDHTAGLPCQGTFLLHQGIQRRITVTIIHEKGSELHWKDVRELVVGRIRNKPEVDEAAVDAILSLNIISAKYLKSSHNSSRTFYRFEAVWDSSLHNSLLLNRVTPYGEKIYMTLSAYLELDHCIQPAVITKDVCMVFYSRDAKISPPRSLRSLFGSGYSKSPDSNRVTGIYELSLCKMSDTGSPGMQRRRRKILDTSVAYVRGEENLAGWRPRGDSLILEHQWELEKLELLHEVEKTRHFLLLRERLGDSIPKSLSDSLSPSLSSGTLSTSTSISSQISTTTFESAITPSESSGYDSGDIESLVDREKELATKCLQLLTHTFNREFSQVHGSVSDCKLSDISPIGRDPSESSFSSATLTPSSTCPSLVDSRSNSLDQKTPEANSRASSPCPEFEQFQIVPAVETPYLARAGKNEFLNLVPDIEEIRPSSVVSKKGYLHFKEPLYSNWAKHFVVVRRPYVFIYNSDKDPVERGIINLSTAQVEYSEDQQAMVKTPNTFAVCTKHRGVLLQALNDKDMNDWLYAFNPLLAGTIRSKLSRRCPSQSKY
UniProt Q6KC79: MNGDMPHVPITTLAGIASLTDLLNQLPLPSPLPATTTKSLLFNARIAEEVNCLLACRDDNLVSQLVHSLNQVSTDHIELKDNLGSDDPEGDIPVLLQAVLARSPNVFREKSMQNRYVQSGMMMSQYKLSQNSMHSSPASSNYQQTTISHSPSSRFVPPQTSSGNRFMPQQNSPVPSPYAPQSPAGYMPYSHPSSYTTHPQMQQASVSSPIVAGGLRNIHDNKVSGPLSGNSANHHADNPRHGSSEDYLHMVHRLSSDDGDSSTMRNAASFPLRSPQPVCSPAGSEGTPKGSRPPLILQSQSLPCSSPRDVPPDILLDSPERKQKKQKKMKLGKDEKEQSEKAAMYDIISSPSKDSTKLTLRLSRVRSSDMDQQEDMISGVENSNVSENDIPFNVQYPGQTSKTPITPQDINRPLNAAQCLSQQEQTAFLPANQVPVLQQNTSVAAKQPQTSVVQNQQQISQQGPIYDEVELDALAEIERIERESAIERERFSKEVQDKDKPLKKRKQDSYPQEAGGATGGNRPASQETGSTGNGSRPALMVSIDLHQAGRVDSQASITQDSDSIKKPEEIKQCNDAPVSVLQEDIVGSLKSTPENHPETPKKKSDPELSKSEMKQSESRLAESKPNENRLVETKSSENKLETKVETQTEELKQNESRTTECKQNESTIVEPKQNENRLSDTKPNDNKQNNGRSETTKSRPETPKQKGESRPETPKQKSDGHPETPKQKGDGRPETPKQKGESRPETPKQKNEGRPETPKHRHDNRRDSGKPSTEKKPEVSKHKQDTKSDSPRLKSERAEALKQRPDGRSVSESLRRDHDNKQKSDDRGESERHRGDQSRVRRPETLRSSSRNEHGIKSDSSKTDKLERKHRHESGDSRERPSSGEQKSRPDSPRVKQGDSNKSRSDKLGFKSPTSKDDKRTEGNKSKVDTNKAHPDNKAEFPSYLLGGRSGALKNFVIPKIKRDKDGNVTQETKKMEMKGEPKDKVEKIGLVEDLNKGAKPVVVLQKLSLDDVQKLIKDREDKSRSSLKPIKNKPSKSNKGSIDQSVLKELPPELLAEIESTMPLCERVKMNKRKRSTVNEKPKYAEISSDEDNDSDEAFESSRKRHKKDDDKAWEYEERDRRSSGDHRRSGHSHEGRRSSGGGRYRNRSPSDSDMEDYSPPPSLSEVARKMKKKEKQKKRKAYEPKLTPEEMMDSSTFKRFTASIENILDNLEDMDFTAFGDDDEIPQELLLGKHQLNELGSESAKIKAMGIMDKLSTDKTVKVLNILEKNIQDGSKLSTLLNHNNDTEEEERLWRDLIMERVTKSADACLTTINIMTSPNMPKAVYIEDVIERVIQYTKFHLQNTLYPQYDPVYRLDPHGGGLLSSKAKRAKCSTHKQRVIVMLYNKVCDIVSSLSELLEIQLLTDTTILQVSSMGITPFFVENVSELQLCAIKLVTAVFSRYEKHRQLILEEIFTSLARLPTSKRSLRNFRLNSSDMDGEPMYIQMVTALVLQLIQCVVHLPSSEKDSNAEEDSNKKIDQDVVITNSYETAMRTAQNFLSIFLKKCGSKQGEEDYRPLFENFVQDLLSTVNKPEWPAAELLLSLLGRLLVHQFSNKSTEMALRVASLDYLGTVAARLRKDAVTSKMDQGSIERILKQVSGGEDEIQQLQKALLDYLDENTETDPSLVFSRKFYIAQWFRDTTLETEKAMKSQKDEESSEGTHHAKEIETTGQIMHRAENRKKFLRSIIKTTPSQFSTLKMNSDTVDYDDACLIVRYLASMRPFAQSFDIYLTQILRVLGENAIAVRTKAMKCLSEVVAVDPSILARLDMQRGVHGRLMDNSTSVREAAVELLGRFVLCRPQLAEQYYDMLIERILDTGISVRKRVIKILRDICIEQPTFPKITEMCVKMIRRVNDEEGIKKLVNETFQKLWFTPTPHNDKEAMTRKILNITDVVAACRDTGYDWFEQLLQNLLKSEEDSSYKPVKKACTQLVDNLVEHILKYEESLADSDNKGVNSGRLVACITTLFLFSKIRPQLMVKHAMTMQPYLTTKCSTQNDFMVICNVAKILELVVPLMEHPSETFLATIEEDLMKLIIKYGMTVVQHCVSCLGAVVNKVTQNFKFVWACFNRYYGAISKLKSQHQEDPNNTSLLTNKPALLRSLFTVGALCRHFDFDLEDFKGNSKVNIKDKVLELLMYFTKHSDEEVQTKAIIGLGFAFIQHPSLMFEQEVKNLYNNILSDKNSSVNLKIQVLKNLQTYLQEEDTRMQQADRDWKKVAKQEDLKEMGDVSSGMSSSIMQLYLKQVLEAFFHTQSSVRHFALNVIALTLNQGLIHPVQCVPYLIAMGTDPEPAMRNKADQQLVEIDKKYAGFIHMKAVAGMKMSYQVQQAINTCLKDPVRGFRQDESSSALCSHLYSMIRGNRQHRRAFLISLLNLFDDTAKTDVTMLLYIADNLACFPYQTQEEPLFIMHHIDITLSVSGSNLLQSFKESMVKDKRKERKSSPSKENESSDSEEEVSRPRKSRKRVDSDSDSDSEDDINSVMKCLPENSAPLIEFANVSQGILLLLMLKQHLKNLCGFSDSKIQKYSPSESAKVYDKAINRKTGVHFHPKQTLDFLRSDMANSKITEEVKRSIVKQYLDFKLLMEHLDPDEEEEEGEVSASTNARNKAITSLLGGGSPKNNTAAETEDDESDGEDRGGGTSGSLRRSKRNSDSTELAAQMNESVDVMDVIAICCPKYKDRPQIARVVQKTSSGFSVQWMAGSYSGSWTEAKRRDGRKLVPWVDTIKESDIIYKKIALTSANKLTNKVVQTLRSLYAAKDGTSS
UniProt Q5VTE0: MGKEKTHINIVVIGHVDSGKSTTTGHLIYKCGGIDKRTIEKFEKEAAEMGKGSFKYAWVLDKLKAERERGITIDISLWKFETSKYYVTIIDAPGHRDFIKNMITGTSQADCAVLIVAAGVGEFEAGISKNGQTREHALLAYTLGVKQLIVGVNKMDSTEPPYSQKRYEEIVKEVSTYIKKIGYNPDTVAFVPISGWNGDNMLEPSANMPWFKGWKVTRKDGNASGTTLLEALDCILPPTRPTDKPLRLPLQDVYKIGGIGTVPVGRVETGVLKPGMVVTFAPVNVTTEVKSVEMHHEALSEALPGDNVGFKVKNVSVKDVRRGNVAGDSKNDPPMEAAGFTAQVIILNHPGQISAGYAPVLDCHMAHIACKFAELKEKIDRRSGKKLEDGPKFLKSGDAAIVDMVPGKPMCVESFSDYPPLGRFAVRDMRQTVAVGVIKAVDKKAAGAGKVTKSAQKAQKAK
UniProt Q5VT52: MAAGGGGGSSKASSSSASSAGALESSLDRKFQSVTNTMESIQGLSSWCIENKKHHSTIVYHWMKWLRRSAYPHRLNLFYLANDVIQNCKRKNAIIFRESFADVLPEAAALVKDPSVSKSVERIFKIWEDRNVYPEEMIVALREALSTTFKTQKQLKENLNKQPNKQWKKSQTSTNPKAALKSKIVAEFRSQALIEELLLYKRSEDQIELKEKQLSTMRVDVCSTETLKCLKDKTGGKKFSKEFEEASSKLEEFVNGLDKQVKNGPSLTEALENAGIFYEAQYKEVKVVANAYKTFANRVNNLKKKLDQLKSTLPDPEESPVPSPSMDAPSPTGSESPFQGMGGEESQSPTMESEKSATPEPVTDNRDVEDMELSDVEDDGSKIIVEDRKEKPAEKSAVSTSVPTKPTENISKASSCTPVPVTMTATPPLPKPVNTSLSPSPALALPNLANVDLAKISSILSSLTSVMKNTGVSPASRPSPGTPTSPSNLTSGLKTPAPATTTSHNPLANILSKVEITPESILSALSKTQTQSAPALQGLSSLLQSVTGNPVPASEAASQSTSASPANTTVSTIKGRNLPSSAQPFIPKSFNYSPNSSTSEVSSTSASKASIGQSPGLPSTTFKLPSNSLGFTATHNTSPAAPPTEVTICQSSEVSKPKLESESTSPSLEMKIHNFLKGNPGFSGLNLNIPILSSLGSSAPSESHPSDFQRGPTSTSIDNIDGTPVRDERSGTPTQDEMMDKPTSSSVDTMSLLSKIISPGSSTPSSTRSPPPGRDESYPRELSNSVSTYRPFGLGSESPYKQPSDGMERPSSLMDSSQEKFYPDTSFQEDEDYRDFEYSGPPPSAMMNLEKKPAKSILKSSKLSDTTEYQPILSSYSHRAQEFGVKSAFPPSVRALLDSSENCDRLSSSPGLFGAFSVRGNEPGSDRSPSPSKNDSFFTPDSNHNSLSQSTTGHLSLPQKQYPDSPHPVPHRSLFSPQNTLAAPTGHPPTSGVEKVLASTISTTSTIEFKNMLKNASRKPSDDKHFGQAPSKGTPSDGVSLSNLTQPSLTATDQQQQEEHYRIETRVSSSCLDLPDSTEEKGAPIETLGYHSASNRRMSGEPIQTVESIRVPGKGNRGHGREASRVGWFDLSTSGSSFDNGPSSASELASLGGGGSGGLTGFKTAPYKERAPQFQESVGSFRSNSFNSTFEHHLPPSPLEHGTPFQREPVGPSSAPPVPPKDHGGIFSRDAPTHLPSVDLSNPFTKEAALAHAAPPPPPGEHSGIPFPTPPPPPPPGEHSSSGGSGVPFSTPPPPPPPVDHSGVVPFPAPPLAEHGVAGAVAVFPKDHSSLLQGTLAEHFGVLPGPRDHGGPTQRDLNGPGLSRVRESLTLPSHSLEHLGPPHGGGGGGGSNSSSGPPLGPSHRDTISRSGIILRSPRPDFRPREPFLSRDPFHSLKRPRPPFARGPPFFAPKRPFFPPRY

B1: Isoform 2 of Extracellular matrix protein 1 (protein, UniProt Q16610-2 20-415)
chain: ASEGGFTATGQRQLRPEHFQEVGYAAPPSPPLSRSLPMDHPDSSQHGPPFEGQSQVQPPPSQEATPLQQEKLLPAQLPAEKEVGPPLPQEAVPLQKELPSLQHPNEQKEGTPAPFGDQSHPEPESWNAAQHCQQDRSQGGWGHRLDGFPPGRPSPDNLNQICLPNRQHVVYGPWNLPQSSYSHLTRQGETLNFLEIGYSRCCHCRSHTNRLECAKLVWEDTLDKYCDREYAVKTHHHLCCRHPPSPTRDECFARRAPYPNYDRDILTIDIGRVTPNLMGHLCGNQRVLTKHKHIPGLIHNMTARCCDLPFPEQACCAEEEKLTFINDLCGPRRNIWRDPALCCYLSPGDEQVNCFNINYLRNVALVSGDTENAKGQGEQGSTGGTNISSTSEPKEE
B2: Isoform 2 of Ectoderm-neural cortex protein 1 (protein, UniProt O14682-2 1-516)
chain: MFSGGLKESQDSEVNFDNSIHPEVLELLLDYAYSSRVIINEENAESLLEAGDMLEFQDIRDACAEFLEKNLHPTNCLGMLLLSDAHQCTKLYELSWRMCLSNFQTIRKNEDFLQLPQDMVVQLLSSEELETEDERLVYESAINWISYDLKKRYCYLPELLQTVRLALLPAIYLMENVAMEELITKQRKSKEIVEEAIRCKLKILQNDGVVTSLCARPRKTGHALFLLGGQTFMCDKLYLVDQKAKEIIPKADIPSPRKEFSACAIGCKVYITGGRGSENGVSKDVWVYDTLHEEWSKAAPMLVARFGHGSAELKHCLYVVGGHTAATGCLPASPSVSLKQVEHYDPTINKWTMVAPLREGVSNAAVVSAKLKLFAFGGTSVSHDKLPKVQCYDQCENRWTVPATCPQPWRYTAAAVLGNQIFIMGGDTEFSACSAYKFNSETYQWTKVGDVTAKRMSCHAVASGNKLYVVGGYFGIQRCKTLDCYDPTLDVWNSITTVPYSLIPTAFVSTWKHLPS
B3: Perilipin-3 (protein, UniProt O60664 1-434)
chain: MSADGAEADGSTQVTVEEPVQQPSVVDRVASMPLISSTCDMVSAAYASTKESYPHIKTVCDAAEKGVRTLTAAAVSGAQPILSKLEPQIASASEYAHRGLDKLEENLPILQQPTEKVLADTKELVSSKVSGAQEMVSSAKDTVATQLSEAVDATRGAVQSGVDKTKSVVTGGVQSVMGSRLGQMVLSGVDTVLGKSEEWADNHLPLTDAELARIATSLDGFDVASVQQQRQEQSYFVRLGSLSERLRQHAYEHSLGKLRATKQRAQEALLQLSQVLSLMETVKQGVDQKLVEGQEKLHQMWLSWNQKQLQGPEKEPPKPEQVESRALTMFRDIAQQLQATCTSLGSSIQGLPTNVKDQVQQARRQVEDLQATFSSIHSFQDLSSSILAQSRERVASAREALDHMVEYVAQNTPVTWLVGPFAPGITEKAPEEKK
B4: Fanconi anemia group B protein (protein, UniProt Q8NB91 1-859)
chain: MTSKQAMSSNEQERLLCYNGEVLVFQLSKGNFADKEPTKTPILHVRRMVFDRGTKVFVQKSTGFFTIKEENSHLKIMCCNCVSDFRTGINLPYIVIEKNKKNNVFEYFLLILHSTNKFEMRLSFKLGYEMKDGLRVLNGPLILWRHVKAFFFISSQTGKVVSVSGNFSSIQWAGEIENLGMVLLGLKECCLSEEECTQEPSKSDYAIWNTKFCVYSLESQEVLSDIYIIPPAYSSVVTYVHICATEIIKNQLRISLIALTRKNQLISFQNGTPKNVCQLPFGDPCAVQLMDSGGGNLFFVVSFISNNACAVWKESFQVAAKWEKLSLVLIDDFIGSGTEQVLLLFKDSLNSDCLTSFKITDLGKINYSSEPSDCNEDDLFEDKQENRYLVVPPLETGLKVCFSSFRELRQHLLLKEKIISKSYKALINLVQGKDDNTSSAEEKECLVPLCGEEENSVHILDEKLSDNFQDSEQLVEKIWYRVIDDSLVVGVKTTSSLKLSLNDVTLSLLMDQAHDSRFRLLKCQNRVIKLSTNPFPAPYLMPCEIGLEAKRVTLTPDSKKEESFVCEHPSKKECVQIITAVTSLSPLLTFSKFCCTVLLQIMERESGNCPKDRYVVCGRVFLSLEDLSTGKYLLTFPKKKPIEHMEDLFALLAAFHKSCFQITSPGYALNSMKVWLLEHMKCEIIKEFPEVYFCERPGSFYGTLFTWKQRTPFEGILIIYSRNQTVMFQCLHNLIRILPINCFLKNLKSGSENFLIDNMAFTLEKELVTLSSLSSAIAKHESNFMQRCEVSKGKSSVVAAALSDRRENIHPYRKELQREKKKMLQTNLKVSGALYREITLKVAEVQLKSDFAAQKLSNL
B5: Ewing's tumor-associated antigen 1 (protein, UniProt Q9NY74 1-926)
chain: MSRRRKHDDSPSPKKTPHKTVAAEECGSVVEPGRRRLRSARGSWPCGAREGPPGPVRQREQPPTAALCSKSNPEERYETPKRALKMDSLSSSFSSPNDPDGQNDIFWDQNSPLTKQLGKGRKKQIYTTDSDEISHIVNRIAPQDEKPTTNSMLDMWIGETAIPCTPSVAKGKSRAKISCTKLKTQSQEEELMKLAKQFDKNMEELDVIQEQNKRNYDFTQMISETEILSNYKDNIQMWSLHNIVPEIDNATKKPIKGNTKISVANNQNSSQKPFDQIAEAAFNAIFDGSTQKCSGQLSQELPEAFWSTSNTTFVKTNALKEEKIITNETLVIEKLSNKTPRSLSSQVDTPIMTKSCVTSCTKEPETSNKYIDAFTTSDFEDDWENLLGSEPFAMQNIDMPELFPSKTAHVTDQKEICTFNSKTVKNTSRANTSPDARLGDSKVLQDLSSKTYDRELIDAEYRFSPNSNKSNKLSTGNKMKFENSSNKIVIQDEIQNCIVTSNLTKIKEDILTNSTEASERKSALNTRYSNEQKNKCILNQSIKAPVNTDLFGSANLGSKTSVSNPNQTSASKVGSFFDDWNDPSFANEIIKACHQLDNTWEADDVDDDLLYQACDDIERLTQQQDIRKDSKTSESICEINNNSEHGAKLTQQQDIRKDSKTSESICEINNNSEHGAKNMFAISKQGSNLVQSKHLNPGSISVQTSLTNSSQIDKPMKMEKGEMYGNSPRFLGATNLTMYSKISNCQINNLHVSYTNTDVPIQVNSSKLVLPGSSSLNVTSDHMNTEITTYKKKLSTNQPCHKTVTDEAQSNLNTTVGFSKFTFTRMKNSQILSQFNQNCITGSMSDTKITQGVEKKKGVNPLLEEAVGQQSLVKLSESLKQSSKEEEEKNRKCSPEEIQRKRQEALVRRMAKARASSVNAAPTSFL
B6: Probable inactive serine protease 37 (protein, UniProt A4D1T9 20-235)
chain: SVQKEDPAPYLVYLKSHFNPCVGVLIKPSWVLAPAHCYLPNLKVMLGNFKSRVRDGTEQTINPIQIVRYWNYSHSAPQDDLMLIKLAKPAMLNPKVQPLTLATTNVRPGTVCLLSGLDWSQENSGRHPDLRQNLEAPVMSDRECQKTEQGKSHRNSLCVKFVKVFSRIFGEVAVATVICKDKLQGIEVGHFMGGDVGIYTNVYKYVSWIENTAKDK
B7: Phospholipid phosphatase 6 (protein, UniProt Q8IY26 1-295)
chain: MPSPRRSMEGRPLGVSASSSSSSPGSPAHGGGGGGSRFEFQSLLSSRATAVDPTCARLRASESPVHRRGSFPLAAAGPSQSPAPPLPEEDRMDLNPSFLGIALRSLLAIDLWLSKKLGVCAGESSSWGSVRPLMKLLEISGHGIPWLLGTLYCLCRSDSWAGREVLMNLLFALLLDLLLVALIKGLVRRRRPAHNQMDMFVTLSVDKYSFPSGHATRAALMSRFILNHLVLAIPLRVLVVLWAFVLGLSRVMLGRHNVTDVAFGFFLGYMQYSIVDYCWLSPHNAPVLFLLWSQR

Biological target: T1, Protein S100-A16, overexpressed from lentivirus (human)
Experiment: affinity purification with mass spectrometry; HK-2 cells stably overexpressing S100A16 or scramble-transduced, lysed with RIPA; lysates immunoprecipitated with anti-S100A16 antibody; LC-MS/MS (LTQ-Orbitrap)

Molecule	binding
78 kDa glucose-regulated protein (from UniProt P11021 19-654)	binds
ATP synthase subunit beta mitochondrial (from UniProt P06576 48-529)	binds
ATP-binding cassette sub-family A member 2 (from UniProt Q9BZC7 1-2435)	binds
Abnormal spindle-like microcephaly-associated protein (from UniProt Q8IZT6 1-3477)	binds
Golgin subfamily A member 4 (from UniProt Q13439 1-2230)	binds
Histone H1.2 (from UniProt P16403 1-213)	binds
Isoform 2 of Exocyst complex component 7 (from UniProt Q9UPT5-2 1-653)	binds
Isoform 2 of Kinesin-like protein KIF1B (from UniProt O60333-2 1-1770)	binds
Isoform 2 of Kinesin-like protein KIF26B (from UniProt Q2KJY2-2 1-1725)	binds
Isoform 2 of Ryanodine receptor 1 (from UniProt P21817-2 1-5033)	binds
Isoform 2 of Tropomyosin alpha-3 chain (from UniProt P06753-2 1-248)	binds
Isoform 5 of Trypsin-3 (human (endogenous in HK-2))	binds
Isoform 9 of Tropomyosin alpha-1 chain (from UniProt P09493-9 1-284)	binds
Microtubule-associated protein (from UniProt P27816 1-1152)	binds
Myosin light polypeptide 6 (from UniProt P60660 1-151)	binds
Myosin regulatory light chain 10 (from UniProt Q9BUA6 1-226)	binds
Myosin-9 (from UniProt P35579 1-1960)	binds
Nipped-B-like protein (from UniProt Q6KC79 1-2804)	binds

Molecule	binding
Nuclease-sensitive element-binding protein 1 (from UniProt P67809 1-324)	binds
Plexin-A2 (from UniProt O75051 35-1894)	binds
Probable ATP-dependent RNA helicase DDX60-like (from UniProt Q5H9U9 1-1706)	binds
Protease serine 1 (from UniProt P07477)	binds
Putative elongation factor 1-alpha-like 3 (from UniProt Q5VTE0 1-462)	binds
Regulation of nuclear pre-mRNA domain-containing protein 2 (from UniProt Q5VT52 1-1461)	binds
Ryanodine receptor 2 (from UniProt Q92736 1-4967)	binds
Transforming acidic coiled-coil-containing protein 2 (from UniProt O95359 1-2948)	binds
Usherin (from UniProt O75445 32-5202)	binds
Vimentin (from UniProt P08670 1-466)	binds
B1	binds
B2	binds
B3	binds
B4	binds
B5	binds
B6	binds
B7	binds

— PMC7039973
